Experimental data from article PMC11829042, “Proteasomes accumulate in the plant apoplast where they participate in microbe-associated molecular pattern (MAMP)-triggered pathogen defense” (Nature Communications, 2025).
No constants are given. Whether binding was seen depends on the method and setting. In cells and extracts the contact can be indirect. A result given as binding can be weak or reduced; the word gives no strength. Tags and fused reporters may be left off the sequences shown.

Target: T1, PAG1(α7) CP subunit bearing a C-terminal FLAG tag (Arabidopsis thaliana) (UniProt O23715)
T1 sequence: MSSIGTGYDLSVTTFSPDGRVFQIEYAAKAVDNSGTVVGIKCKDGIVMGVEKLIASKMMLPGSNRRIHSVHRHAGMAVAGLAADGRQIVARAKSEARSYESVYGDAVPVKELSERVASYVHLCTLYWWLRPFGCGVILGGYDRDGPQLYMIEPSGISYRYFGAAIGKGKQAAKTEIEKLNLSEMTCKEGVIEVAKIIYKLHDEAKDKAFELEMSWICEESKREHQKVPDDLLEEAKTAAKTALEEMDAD
Assay: co-IP; immune-depletion: resuspended APFp from PAG1-FLAG pag1-1 leaves applied three times to anti-FLAG M2 resin at 4 °C in buffer A (50 mM HEPES pH 7.5, 50 mM NaCl, 10% glycerol, 10 mM MgCl2, 20 mM ATP, 2 mM PMSF, 0.6% Na2S2O5); APFp, supernatant and immunoprecipitated fractions immunoblotted

binding: binds
Substance: RPN1 RP subunit
